Results on 1 substance are retold here after doi:10.1101/2023.07.11.548643.

Chains of the proteins cited; added tags and fusions are not shown.
UniProt P04198: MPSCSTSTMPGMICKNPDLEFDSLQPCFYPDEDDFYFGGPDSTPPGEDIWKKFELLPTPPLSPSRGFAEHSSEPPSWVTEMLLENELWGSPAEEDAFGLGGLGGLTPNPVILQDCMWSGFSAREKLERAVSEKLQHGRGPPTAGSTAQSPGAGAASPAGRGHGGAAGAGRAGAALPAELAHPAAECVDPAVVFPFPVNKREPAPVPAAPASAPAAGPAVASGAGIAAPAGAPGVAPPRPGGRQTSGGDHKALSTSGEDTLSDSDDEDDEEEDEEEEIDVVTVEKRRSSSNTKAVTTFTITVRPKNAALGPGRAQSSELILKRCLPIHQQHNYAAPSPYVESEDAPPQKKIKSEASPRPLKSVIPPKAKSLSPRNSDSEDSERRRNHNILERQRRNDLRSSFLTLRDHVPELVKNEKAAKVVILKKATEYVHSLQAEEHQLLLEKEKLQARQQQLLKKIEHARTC
UniProt Q96KQ7: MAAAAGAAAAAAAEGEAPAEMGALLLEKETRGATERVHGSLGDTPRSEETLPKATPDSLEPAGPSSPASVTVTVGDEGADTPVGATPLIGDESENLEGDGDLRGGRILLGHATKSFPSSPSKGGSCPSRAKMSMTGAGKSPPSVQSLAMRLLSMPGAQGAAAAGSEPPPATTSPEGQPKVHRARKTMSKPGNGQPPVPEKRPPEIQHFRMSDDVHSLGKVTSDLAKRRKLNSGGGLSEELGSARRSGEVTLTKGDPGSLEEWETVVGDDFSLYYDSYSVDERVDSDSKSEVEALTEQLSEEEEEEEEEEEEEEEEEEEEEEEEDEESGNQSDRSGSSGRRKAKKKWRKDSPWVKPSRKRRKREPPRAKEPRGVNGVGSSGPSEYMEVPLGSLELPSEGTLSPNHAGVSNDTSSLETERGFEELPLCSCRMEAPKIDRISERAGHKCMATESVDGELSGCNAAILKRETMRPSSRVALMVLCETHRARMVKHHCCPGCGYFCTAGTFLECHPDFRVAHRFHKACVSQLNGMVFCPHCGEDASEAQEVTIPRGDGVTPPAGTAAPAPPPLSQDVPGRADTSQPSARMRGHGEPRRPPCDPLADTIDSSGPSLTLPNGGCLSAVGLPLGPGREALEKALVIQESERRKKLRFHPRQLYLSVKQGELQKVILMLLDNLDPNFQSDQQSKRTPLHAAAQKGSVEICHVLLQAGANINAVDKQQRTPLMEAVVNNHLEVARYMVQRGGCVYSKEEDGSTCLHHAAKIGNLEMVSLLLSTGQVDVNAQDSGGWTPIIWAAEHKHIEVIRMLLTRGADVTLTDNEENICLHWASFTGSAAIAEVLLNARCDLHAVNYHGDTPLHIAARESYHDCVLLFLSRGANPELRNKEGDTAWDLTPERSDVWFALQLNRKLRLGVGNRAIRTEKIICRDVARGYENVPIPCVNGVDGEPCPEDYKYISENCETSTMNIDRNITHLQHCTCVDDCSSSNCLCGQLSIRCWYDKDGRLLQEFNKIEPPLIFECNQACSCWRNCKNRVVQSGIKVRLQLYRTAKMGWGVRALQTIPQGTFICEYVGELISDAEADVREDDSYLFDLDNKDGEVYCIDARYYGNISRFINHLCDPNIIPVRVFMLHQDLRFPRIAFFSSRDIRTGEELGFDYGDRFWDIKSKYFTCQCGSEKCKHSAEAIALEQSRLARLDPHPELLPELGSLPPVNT

This test addresses MYCN (human (endogenous in IMR32)) (UniProt P04198). The experiment in a line: co-IP; validation: MYCN co-IP from IMR32 cells and western blot with antibodies to MYCN, G9a and WDR5; Benzonase (500 U/ml) and Mg2+ (2 mM) added as indicated.

No constants are given. Whether binding was seen depends on the method and setting. In cells and extracts the contact can be indirect. Some entries that bind do so weakly or less than the wild type.

G9a (from UniProt Q96KQ7 1-1210): the binding result is “binds”.
